Measured values: the supplement of paper PMC10849652
The list shows a part of the results.

The chains behind the UniProt entries cited, without tags or fusion partners. Where a name states a change or a piece, a line headed by the entry shows the natural chain unless it says otherwise.
UniProt Q8IUG5: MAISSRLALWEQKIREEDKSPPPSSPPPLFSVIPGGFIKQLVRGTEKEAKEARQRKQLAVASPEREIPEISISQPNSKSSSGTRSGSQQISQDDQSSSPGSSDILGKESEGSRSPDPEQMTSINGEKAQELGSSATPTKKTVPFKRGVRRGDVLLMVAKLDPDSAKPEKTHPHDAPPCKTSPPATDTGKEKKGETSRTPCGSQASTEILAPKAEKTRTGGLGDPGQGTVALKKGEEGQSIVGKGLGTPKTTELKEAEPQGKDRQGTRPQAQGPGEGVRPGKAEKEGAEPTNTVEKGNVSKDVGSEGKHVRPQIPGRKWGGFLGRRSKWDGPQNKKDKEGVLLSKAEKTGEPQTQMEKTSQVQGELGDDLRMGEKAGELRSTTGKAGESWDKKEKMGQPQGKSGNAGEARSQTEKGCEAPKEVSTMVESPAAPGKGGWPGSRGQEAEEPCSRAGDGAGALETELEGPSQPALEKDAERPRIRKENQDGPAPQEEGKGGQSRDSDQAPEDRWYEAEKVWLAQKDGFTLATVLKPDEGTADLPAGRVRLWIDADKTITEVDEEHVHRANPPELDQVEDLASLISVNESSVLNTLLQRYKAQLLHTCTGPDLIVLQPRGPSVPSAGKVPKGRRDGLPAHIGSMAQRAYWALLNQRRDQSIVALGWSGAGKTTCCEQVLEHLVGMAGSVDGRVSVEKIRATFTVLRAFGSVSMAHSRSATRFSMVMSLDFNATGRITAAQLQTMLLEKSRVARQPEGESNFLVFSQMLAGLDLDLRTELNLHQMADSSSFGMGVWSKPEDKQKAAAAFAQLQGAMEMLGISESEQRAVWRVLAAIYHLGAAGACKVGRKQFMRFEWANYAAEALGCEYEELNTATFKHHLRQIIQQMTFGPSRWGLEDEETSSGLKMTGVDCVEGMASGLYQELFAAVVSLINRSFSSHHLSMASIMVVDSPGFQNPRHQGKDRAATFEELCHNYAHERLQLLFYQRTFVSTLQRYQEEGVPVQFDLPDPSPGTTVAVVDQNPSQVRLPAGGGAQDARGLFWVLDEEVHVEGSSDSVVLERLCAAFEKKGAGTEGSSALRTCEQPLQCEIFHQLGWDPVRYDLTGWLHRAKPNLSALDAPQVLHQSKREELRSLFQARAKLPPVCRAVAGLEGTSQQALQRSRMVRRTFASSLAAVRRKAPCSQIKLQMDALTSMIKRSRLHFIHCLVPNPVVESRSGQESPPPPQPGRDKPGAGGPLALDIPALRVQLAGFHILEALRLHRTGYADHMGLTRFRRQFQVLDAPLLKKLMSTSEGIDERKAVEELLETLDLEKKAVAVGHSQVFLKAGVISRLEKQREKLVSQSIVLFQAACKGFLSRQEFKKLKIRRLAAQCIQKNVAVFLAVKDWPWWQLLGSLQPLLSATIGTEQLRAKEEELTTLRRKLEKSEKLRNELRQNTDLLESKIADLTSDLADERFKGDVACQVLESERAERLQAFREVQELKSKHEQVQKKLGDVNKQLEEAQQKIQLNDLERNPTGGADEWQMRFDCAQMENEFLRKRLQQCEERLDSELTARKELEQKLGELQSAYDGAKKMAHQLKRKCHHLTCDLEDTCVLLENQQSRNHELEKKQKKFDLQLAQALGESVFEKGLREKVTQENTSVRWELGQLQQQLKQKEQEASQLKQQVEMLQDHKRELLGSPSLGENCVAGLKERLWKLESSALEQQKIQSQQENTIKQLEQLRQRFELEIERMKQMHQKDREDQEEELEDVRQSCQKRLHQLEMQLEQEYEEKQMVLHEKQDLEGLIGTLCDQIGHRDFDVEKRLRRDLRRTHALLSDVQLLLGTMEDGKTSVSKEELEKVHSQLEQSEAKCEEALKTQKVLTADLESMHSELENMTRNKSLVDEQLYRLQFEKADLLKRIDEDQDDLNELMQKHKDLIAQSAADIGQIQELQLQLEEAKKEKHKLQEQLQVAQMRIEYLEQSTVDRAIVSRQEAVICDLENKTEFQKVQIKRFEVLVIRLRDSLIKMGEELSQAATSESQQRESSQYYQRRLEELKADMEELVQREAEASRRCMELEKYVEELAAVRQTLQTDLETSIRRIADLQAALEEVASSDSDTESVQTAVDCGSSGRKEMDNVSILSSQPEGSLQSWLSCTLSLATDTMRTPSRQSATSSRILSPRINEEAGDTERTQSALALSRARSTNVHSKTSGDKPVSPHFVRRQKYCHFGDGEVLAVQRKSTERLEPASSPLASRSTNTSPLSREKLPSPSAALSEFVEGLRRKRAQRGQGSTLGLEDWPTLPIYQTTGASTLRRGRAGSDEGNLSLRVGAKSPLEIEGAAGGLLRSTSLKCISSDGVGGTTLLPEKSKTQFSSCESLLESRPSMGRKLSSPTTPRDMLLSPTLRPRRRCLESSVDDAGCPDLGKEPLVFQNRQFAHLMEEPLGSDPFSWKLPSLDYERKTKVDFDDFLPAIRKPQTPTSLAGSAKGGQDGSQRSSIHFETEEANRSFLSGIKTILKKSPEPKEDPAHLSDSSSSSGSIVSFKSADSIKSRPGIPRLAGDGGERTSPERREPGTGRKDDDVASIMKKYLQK
UniProt P03928: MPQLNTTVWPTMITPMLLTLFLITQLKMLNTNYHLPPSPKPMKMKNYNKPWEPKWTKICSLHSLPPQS
UniProt Q9H903: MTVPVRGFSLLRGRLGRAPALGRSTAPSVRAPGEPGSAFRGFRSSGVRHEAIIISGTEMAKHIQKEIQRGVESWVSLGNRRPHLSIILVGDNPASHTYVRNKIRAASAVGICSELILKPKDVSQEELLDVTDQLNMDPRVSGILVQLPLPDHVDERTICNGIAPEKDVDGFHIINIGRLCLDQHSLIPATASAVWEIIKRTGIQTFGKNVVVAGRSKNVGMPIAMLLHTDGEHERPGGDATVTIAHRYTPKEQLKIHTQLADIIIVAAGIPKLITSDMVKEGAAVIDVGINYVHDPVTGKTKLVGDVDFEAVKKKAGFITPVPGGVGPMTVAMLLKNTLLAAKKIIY
UniProt Q8TAX7: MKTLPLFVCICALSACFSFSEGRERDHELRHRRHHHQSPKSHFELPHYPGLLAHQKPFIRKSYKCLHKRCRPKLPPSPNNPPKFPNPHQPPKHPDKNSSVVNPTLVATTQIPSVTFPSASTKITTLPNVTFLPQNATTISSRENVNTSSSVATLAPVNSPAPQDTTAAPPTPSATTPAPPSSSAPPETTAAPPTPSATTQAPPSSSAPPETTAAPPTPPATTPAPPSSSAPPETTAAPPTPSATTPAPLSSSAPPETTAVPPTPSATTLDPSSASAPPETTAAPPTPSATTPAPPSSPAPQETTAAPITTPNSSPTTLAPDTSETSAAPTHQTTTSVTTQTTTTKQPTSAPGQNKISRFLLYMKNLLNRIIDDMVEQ
UniProt G3V1V0: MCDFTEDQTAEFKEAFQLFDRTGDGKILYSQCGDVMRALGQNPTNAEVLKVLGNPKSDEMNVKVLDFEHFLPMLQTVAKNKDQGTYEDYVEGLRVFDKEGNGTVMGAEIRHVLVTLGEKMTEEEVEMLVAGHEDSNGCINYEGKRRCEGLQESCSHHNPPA
UniProt P46199: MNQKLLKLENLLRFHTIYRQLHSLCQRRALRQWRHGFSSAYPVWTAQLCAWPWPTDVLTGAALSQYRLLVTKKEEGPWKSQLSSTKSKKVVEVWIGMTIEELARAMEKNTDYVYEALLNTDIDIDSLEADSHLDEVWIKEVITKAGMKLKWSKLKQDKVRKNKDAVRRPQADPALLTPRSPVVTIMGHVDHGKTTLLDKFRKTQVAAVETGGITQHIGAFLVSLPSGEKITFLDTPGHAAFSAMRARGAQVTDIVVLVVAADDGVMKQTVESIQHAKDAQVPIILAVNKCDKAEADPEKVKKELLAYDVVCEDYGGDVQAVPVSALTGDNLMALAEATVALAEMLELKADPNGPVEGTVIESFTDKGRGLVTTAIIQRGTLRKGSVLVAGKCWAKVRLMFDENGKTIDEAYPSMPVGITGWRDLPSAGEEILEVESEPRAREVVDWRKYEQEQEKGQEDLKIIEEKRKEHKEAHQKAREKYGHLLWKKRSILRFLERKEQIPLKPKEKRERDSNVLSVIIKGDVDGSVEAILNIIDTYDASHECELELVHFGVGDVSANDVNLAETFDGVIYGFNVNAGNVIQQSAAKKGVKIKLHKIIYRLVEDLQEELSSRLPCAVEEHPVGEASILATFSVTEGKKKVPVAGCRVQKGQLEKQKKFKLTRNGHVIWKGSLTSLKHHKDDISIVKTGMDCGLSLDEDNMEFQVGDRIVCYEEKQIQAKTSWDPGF
UniProt Q9UJ68: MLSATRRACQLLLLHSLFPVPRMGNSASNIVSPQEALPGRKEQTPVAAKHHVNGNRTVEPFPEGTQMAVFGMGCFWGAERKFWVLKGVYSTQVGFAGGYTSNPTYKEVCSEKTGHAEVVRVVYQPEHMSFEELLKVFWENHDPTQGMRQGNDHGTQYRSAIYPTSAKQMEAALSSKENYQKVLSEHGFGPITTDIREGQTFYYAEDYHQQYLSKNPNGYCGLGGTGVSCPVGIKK
UniProt Q96DP5: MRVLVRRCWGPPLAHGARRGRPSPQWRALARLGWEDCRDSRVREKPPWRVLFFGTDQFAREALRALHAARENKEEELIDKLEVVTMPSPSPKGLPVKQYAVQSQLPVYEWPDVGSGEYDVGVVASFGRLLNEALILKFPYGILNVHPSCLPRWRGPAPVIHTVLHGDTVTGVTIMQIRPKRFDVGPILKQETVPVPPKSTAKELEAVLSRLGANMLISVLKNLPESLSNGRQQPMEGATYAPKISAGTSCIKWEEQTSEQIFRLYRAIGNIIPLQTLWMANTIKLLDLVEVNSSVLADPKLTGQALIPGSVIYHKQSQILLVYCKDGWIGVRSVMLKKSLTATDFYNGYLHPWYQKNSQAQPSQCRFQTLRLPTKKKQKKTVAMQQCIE
UniProt P84157: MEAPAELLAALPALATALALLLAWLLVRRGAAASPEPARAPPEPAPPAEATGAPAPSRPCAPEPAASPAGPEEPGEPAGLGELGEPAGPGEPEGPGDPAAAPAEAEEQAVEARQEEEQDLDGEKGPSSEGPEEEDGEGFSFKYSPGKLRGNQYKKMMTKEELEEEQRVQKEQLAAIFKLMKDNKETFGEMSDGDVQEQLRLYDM
UniProt Q9NYA4: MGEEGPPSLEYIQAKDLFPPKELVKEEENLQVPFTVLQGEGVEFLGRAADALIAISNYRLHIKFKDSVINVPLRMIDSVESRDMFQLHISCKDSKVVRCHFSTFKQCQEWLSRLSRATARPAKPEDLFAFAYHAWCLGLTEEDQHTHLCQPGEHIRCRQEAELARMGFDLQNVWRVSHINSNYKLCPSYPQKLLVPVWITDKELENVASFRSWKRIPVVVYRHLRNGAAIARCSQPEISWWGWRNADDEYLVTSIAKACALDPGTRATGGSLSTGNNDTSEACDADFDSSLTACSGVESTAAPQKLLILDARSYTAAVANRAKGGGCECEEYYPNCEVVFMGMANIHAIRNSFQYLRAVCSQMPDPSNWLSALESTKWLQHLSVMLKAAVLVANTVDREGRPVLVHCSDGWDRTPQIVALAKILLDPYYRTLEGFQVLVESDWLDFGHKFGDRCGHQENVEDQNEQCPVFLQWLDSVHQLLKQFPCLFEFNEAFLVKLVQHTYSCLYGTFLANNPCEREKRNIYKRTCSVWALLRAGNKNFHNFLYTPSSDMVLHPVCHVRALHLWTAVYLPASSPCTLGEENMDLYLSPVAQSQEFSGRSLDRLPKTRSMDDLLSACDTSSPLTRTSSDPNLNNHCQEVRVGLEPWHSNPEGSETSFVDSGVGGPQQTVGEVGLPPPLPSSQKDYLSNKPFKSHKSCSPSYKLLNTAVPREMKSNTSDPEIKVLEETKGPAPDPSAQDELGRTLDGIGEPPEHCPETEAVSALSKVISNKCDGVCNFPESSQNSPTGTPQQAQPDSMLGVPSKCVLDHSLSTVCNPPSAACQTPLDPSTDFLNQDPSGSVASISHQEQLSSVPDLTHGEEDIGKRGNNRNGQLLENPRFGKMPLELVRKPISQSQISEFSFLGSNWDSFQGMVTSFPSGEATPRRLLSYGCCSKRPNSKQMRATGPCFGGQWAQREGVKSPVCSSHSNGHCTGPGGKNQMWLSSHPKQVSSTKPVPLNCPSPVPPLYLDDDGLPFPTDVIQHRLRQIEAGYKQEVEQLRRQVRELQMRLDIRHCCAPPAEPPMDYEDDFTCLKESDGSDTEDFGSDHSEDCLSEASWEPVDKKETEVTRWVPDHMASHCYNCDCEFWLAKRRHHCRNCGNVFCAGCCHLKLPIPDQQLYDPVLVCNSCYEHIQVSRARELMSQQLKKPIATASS
UniProt Q99836, whole entry, looked up: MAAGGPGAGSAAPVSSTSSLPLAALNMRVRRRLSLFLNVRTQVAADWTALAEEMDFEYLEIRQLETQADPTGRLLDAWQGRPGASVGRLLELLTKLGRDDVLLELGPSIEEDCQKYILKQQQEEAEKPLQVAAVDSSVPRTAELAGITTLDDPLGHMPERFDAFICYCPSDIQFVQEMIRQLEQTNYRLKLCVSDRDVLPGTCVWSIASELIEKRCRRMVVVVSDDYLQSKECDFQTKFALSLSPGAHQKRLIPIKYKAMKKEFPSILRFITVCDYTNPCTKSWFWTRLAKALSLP

Tests used:
Test in all cases: log2 fold change, soluble protein after heating vs DMSO (PISA); higher = thermal stabilisation; K562 cells, 10 uM, 30 min; active = over 0.2 and 3.5 SD of the protein, either way, in both replicates (recomputed)
[1] = compound: CC[C@H](C)N1C=C(C2=C(C=C(C=C21)C3=CN=C(C=C3)N4CCNCC4)C(=O)NCC5=C(C=C(NC5=O)C)C)C
Summary of the method: (§1)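 Aliquots of K562 cells (2×10^6 cells/mL) treated with 10 μM compound for 30 min were heated for 3 min over 48°C-58°C. After pooling and extraction in PBS with 0.5% NP-40 at 4°C, soluble protein from a 21,000xg, 90 min spin was quantified by TMTpro 16plex LC-MS/MS with channel sums equalised. Thermal stability is expressed against control samples, from duplicates, as a log2 fold change.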

[2] = compound: CC[C@H](C)[C@@H](C(=O)N[C@@H]([C@@H](C)O)C(=O)N[C@@H](CC(C)C)C(=O)[C@]1(CO1)C)NC(=O)[C@H]([C@@H](C)CC)N(C)C(=O)C [epoxomicin]
Summary of the method: as §1

[3] = compound: CC[C@@H]1C(=O)N(C)c2cnc(Nc3ccc(C(=O)NC4CCN(C)CC4)cc3OC)nc2N1C1CCCC1
Summary of the method: as §1

[4] = compound: CCn1c(C(=O)N(C2CC2)C2CC2)cc2c3c(ncn3C)c(Nc3cc(C)n(C)n3)nc21
Summary of the method: as §1

[5] = compound: CN(CCOC1=CC=C(C=C1)C[C@H]2C(=O)NC(=O)S2)C3=CC=CC=N3 (racemic) [rosiglitazone]
Summary of the method: as §1

[6] = compound: CCn1cc(-c2ccnc3[nH]c(-c4cccc(CN(C)C)c4)cc23)c(-c2ccc(NC(=O)N(C)C)cc2)n1
Summary of the method: as §1

[7] = compound: CN1CCC(CNc2ccc3ncc(-c4cccc(OC(F)(F)F)c4)n3n2)CC1
Summary of the method: as §1

[8] = compound: CN(C)CC(=O)Nc1ccc2[nH]c(=O)c3ccccc3c2c1
Summary of the method: as §1

[9] = compound: CN1C2=C(C3=C1C(=O)N(N=C3)CC4=CC(=CC=C4)N)SC(=C2)S(=O)C
Summary of the method: as §1

[10] = compound: CC[C@@H]1C(=O)N(C)c2cnc(Nc3ccc(C(=O)N[C@H]4CC[C@H](N5CCN(CC6CC6)CC5)CC4)cc3OC)nc2N1C(C)C [volasertib]
Summary of the method: as §1

For MRPS36 (UniProt D6R941), the log2 fold change [1] was inactive: -0.068 and the log2 fold change [2] was inactive: -0.086.

With MYO18B isoform 3 (UniProt Q8IUG5) the log2 fold change [3] was inactive: -0.128, the log2 fold change [1] was inactive: -0.112 and the log2 fold change [2] was inactive: -0.382. For the same target, the log2 fold change [4] was inactive: -0.14 and the log2 fold change [5] was inactive: 0.

With MT-ATP8 (UniProt P03928) the log2 fold change [3] was inactive: -0.013, the log2 fold change [1] was inactive: -0.005 and the log2 fold change [2] was inactive: 0.094. For the same target, the log2 fold change [4] was inactive: 0.015, the log2 fold change [6] was inactive: 0.063 and the log2 fold change [5] was inactive: 0.027. For the same target, the log2 fold change [7] was inactive: 0.003.

With MTHFD2L (UniProt Q9H903) the log2 fold change [2] was inactive: -0.051, the log2 fold change [8] was inactive: 0.122 and the log2 fold change [9] was inactive: 0.023.

For MTSS1 isoform 5 (UniProt O43312), the log2 fold change [10] was inactive: -0.021 and the log2 fold change [8] was inactive: 0.047.

MYO1B (UniProt O43795) was tested, and the log2 fold change [6] was inactive: -0.051, the log2 fold change [8] was inactive: -0.254 and the log2 fold change [7] was inactive: 0.17.

With MTERF4 (UniProt Q7Z6M4) the log2 fold change [10] was inactive: 0.004, the log2 fold change [1] was inactive: -0.006 and the log2 fold change [2] was inactive: 0.02. The log2 fold change [4] was inactive: -0.237 and the log2 fold change [9] was inactive: -0.01.

MYH3 (UniProt P11055) was tested, and the log2 fold change [3] was inactive: 0.256, the log2 fold change [1] was inactive: -0.408 and the log2 fold change [4] was inactive: 0.218. The log2 fold change [6] was inactive: 0.054, the log2 fold change [5] was inactive: 0.098 and the log2 fold change [7] was inactive: -0.104.

In the case of MYO9A isoform 4 (UniProt B2RTY4), the log2 fold change [2] was inactive: -0.01, the log2 fold change [4] was inactive: 0 and the log2 fold change [6] was inactive: -0.023. For the same target, the log2 fold change [8] was inactive: -0.035, the log2 fold change [5] was inactive: 0.007 and the log2 fold change [9] was inactive: 0.029. For the same target, the log2 fold change [7] was inactive: 0.115.

For MRPS26 (UniProt Q9BYN8), the log2 fold change [3] was inactive: 0.011, the log2 fold change [10] was inactive: -0.094 and the log2 fold change [2] was inactive: 0.033. For the same target, the log2 fold change [6] was inactive: -0.023, the log2 fold change [8] was inactive: 0.003 and the log2 fold change [9] was inactive: 0.052. For the same target, the log2 fold change [7] was inactive: -0.092.

With MTHFSD (UniProt Q2M296) the log2 fold change [9] was inactive: 0.21.

MTIF3 (UniProt Q9H2K0) was tested, and the log2 fold change [1] was inactive: 0.09, the log2 fold change [2] was inactive: -0.01 and the log2 fold change [4] was inactive: 0.005. For the same target, the log2 fold change [6] was inactive: 0.012, the log2 fold change [8] was inactive: -0.031 and the log2 fold change [5] was inactive: 0.002. For the same target, the log2 fold change [9] was inactive: 0.091 and the log2 fold change [7] was inactive: -0.02.

For MUC7 (UniProt Q8TAX7), the log2 fold change [1] was inactive: 0.071, the log2 fold change [2] was inactive: -0.497 and the log2 fold change [5] was inactive: 0.026.

In the case of MYL6 (UniProt G3V1V0), the log2 fold change [3] was inactive: -0.05, the log2 fold change [4] was inactive: -0.035 and the log2 fold change [8] was inactive: -0.079. The log2 fold change [5] was inactive: 0.144 and the log2 fold change [9] was inactive: 0.035.

In the case of MYH16 (UniProt Q9H6N6), the log2 fold change [10] was inactive: 0.077, the log2 fold change [1] was inactive: 0.156 and the log2 fold change [6] was inactive: -0.067. The log2 fold change [8] was inactive: 0.011 and the log2 fold change [7] was inactive: 0.26.

With MT-CO3 (UniProt P00414) the log2 fold change [10] was inactive: -0.004, the log2 fold change [8] was inactive: 0.181 and the log2 fold change [9] was inactive: -0.164.

For MXRA8 isoform 2 (UniProt Q9BRK3), the log2 fold change [2] was inactive: -0.403, the log2 fold change [4] was inactive: 0.017 and the log2 fold change [8] was inactive: -0.547. The log2 fold change [5] was inactive: 0.065.

MTURN (UniProt Q8N3F0) was tested, and the log2 fold change [10] was inactive: -0.156, the log2 fold change [8] was inactive: 0.074 and the log2 fold change [5] was inactive: 0.003.

For MTIF2 (UniProt P46199), the log2 fold change [2] was inactive: 0.043.

With MSRA (UniProt Q9UJ68) the log2 fold change [10] was inactive: -0.176 and the log2 fold change [9] was inactive: 0.095.

MYO19 (UniProt Q96H55) was tested, and the log2 fold change [10] was inactive: 0.007, the log2 fold change [1] was inactive: 0.011 and the log2 fold change [2] was inactive: 0.097. The log2 fold change [6] was inactive: -0.215, the log2 fold change [8] was inactive: -0.081 and the log2 fold change [9] was inactive: 0.076. For the same target, the log2 fold change [7] was inactive: 0.404.

For MTERF3 (UniProt Q96E29), the log2 fold change [4] was inactive: 0.13, the log2 fold change [6] was inactive: 0.237 and the log2 fold change [5] was inactive: 0.035. The log2 fold change [9] was inactive: 0.209 and the log2 fold change [7] was inactive: -0.029.

With MT-ND6 (UniProt P03923) the log2 fold change [3] was inactive: 0.046, the log2 fold change [1] was inactive: -0.004 and the log2 fold change [8] was inactive: 0.118. The log2 fold change [5] was inactive: -0.011 and the log2 fold change [9] was inactive: 0.218.

For MTFMT (UniProt Q96DP5), the log2 fold change [3] was inactive: -0.45, the log2 fold change [10] was inactive: -0.019 and the log2 fold change [2] was inactive: 0.165. For the same target, the log2 fold change [8] was inactive: 0.137.

In the case of MTHFSD isoform 3 (UniProt Q2M296), the log2 fold change [10] was inactive: 0.224, the log2 fold change [4] was inactive: -0.02 and the log2 fold change [6] was inactive: -0.088. For the same target, the log2 fold change [8] was inactive: 0.225, the log2 fold change [5] was inactive: -0.107 and the log2 fold change [9] was inactive: 0.173. For the same target, the log2 fold change [7] was inactive: 0.253.

For MTAP isoform 2 (UniProt Q13126), the log2 fold change [6] was inactive: -0.038, the log2 fold change [5] was inactive: 0.121 and the log2 fold change [9] was inactive: -0.008. For the same target, the log2 fold change [7] was inactive: -0.004.

With MYH6 (UniProt P13533) the log2 fold change [10] was inactive: -0.103, the log2 fold change [1] was inactive: -0.129 and the log2 fold change [2] was inactive: 0.001. For the same target, the log2 fold change [4] was inactive: -0.06, the log2 fold change [6] was inactive: 0.051 and the log2 fold change [9] was inactive: -0.033. For the same target, the log2 fold change [7] was inactive: -0.101.

For MYH2 (UniProt Q9UKX2), the log2 fold change [3] was inactive: 0.789, the log2 fold change [5] was inactive: 0.034 and the log2 fold change [9] was inactive: -0.159.

With MXRA7 isoform 3 (UniProt P84157) the log2 fold change [10] was inactive: -0.01.

MTMR4 (UniProt Q9NYA4) was tested, and the log2 fold change [4] was inactive: -0.052.

In the case of MYBBP1A isoform 2 (UniProt Q9BQG0), the log2 fold change [3] was inactive: -0.009, the log2 fold change [1] was inactive: -0.006 and the log2 fold change [2] was inactive: -0.194. The log2 fold change [4] was inactive: 0.02, the log2 fold change [6] was inactive: 0.036 and the log2 fold change [5] was inactive: -0.055. For the same target, the log2 fold change [9] was inactive: 0.077 and the log2 fold change [7] was inactive: 0.014.

For MTMR10 (UniProt Q9NXD2), the log2 fold change [10] was inactive: -0.136, the log2 fold change [1] was inactive: -0.039 and the log2 fold change [2] was inactive: -0.04. For the same target, the log2 fold change [5] was inactive: 0.366.

MT-ND2 (UniProt P03891) was tested, and the log2 fold change [10] was inactive: -0.021, the log2 fold change [1] was inactive: -0.113 and the log2 fold change [6] was inactive: 0.106. The log2 fold change [8] was inactive: 0.195, the log2 fold change [9] was inactive: -0.13 and the log2 fold change [7] was inactive: 0.033.

In the case of MYD88 isoform 6 (UniProt Q99836), the log2 fold change [10] was inactive: 0.866, the log2 fold change [1] was inactive: 0.084 and the log2 fold change [2] was inactive: 0.015. The log2 fold change [6] was inactive: -0.1, the log2 fold change [8] was inactive: -0.039 and the log2 fold change [5] was inactive: -0.456. For the same target, the log2 fold change [7] was inactive: -0.114.

In the case of MT-ND3 (UniProt P03897), the log2 fold change [1] was inactive: -0.079, the log2 fold change [4] was inactive: -0.163 and the log2 fold change [5] was inactive: 0.092.

MTG1 (UniProt Q9BT17) was tested, and the log2 fold change [10] was inactive: -0.057, the log2 fold change [1] was inactive: 0.012 and the log2 fold change [2] was inactive: -0.142. For the same target, the log2 fold change [4] was inactive: -0.131, the log2 fold change [6] was inactive: -0.189 and the log2 fold change [8] was inactive: 0.165. The log2 fold change [5] was inactive: 0.008, the log2 fold change [9] was inactive: -0.066 and the log2 fold change [7] was inactive: -0.003.

MYH15 (UniProt Q9Y2K3) was tested, and the log2 fold change [3] was inactive: -0.045, the log2 fold change [1] was inactive: 0.111 and the log2 fold change [5] was inactive: 0.711.

With MTFR1L (UniProt Q9H019) the log2 fold change [10] was active: -0.586, the log2 fold change [1] was inactive: 0.036 and the log2 fold change [2] was inactive: 0.023. For the same target, the log2 fold change [6] was inactive: -0.186, the log2 fold change [8] was inactive: 0.08 and the log2 fold change [9] was inactive: 0.013. For the same target, the log2 fold change [7] was inactive: -0.296.
